Results as given in publication PMC11074327.
These are yes or no findings as the source states them, for the method shown. Binding seen in cells or lysates may run through a third protein. Some entries that bind do so weakly or less than the wild type. Where a sequence is shown, tags or fusion partners need not be part of it.

Tests used:
[1] = molecular target: Fg-Ter94-C (aa661-801) (Drosophila) (UniProt Q7KN62); test: co-IP; HEK-293T cells co-transfected with two tagged constructs (PEI), collected 48 h after transfection; IP with anti-Fg or anti-Myc, immunoblot
[2] = molecular target: T1, Fg-Ter94-N (aa1-210) (Drosophila) (UniProt Q7KN62); test: as above
T1 sequence: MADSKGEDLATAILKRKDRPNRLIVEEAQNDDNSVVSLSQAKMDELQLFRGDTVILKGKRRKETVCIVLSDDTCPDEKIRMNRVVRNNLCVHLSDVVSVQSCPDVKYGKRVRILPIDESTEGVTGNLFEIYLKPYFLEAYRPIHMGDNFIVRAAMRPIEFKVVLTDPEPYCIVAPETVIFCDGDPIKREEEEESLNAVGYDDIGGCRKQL

[3] = molecular target: Fg-Ter94-M (aa211-660) (Drosophila) (UniProt Q7KN62); test: as above
[4] = molecular target: Fg-Ter94 (Drosophila) (UniProt Q7KN62); test: as above
[5] = molecular target: T2, Fg-Kib (Drosophila) (UniProt Q9VFG8); test: co-IP; HEK-293T cells co-transfected with two tagged partners, with or without co-expressed HA-Ter94 (Fig. 7a-c) or HA-Ub-K63 (Fig. 7d-e); IP and immunoblot
T2 sequence: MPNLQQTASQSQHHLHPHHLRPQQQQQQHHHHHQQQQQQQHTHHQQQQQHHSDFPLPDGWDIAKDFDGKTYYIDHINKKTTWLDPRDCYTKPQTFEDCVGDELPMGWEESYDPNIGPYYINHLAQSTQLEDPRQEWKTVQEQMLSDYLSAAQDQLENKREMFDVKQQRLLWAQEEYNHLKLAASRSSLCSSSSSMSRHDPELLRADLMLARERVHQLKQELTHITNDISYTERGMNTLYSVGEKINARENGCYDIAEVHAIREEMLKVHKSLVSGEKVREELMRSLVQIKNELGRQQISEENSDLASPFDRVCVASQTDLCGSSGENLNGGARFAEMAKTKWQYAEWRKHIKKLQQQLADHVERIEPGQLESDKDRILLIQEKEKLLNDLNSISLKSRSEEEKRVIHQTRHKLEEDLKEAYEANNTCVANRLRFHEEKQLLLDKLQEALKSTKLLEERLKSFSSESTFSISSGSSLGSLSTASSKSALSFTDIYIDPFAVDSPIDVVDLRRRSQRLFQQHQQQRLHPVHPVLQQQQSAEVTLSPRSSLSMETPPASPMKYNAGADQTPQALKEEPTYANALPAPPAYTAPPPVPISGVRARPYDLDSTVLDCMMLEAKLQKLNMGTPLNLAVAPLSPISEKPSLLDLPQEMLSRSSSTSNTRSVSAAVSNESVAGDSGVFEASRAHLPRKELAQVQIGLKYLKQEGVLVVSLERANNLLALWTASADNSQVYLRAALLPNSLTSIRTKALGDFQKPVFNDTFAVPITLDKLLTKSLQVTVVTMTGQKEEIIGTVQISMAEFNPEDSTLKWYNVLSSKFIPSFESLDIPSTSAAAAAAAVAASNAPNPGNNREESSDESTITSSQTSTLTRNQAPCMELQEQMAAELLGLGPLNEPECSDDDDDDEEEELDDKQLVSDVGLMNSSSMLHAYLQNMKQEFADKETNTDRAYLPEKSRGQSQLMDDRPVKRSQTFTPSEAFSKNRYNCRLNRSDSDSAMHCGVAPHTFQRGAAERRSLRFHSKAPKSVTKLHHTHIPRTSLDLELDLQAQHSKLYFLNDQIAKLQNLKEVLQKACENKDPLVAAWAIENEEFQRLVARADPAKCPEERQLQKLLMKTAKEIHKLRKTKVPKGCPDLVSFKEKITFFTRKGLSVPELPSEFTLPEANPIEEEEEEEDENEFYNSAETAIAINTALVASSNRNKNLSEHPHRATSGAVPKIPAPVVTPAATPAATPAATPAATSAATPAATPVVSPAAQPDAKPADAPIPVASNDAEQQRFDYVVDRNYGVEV

B1: Myc-Mer (protein, UniProt Q24564 1-635)
chain: MSPFGSKKNRSLSVRVSTFDSELEFKLEPRASGQDLFDLVCRTIGLRESWYFGLQYVDTRSNVSWLKMEKRVRDQRVELHASNNVYVFSFYAKFFPENVSEELIQEITQHLFFLQVKQSILSMDIYCRPEASVLLASYAVHVQYGPYDYETYKDGMLAGGELLPKGVTDQYQMTPEMWEERIKTWYMDHEPMTRDEVEMEYLKIAQDLDMYGVNYFPITNKNKTKLWLGVTSVGLNIYDERDKLTPKTTFQWNEIRHVSFDDKKFTIRLVDAKVSNFIFYSQDLHINKMILDLCKGNHDLYMRRRKPDTMEIQQMKAQAKEEKQRRQIERKKFIREKKLREKAEHERYELEKSMEHLQNEMRMANDALRRSEETKELYFEKSRVNEEQMQLTECKANHFKTEMDRLRERQMKIEREKHDLEKKIRDADFYVHQLTVENDKREAETEKLRKELICAKMAEREATARLLEFLNSGRKSSTDSLLTASSVSHAANTASSMAAISTPSLITSSSTNDLETAGGAELTTHSSHYLVQGDNSSGISDDFEPKEFILTDNEMEQITNEMERNHLDYLRNSKQVQSQLQTLRSEIAPHKIEENQSNLDILSEAQIKAGENKYSTLKKLKSGSTKARVAFFEEL
binding [1]: binds
binding [2]: binds
binding [3]: no binding
binding [4]: binds
binding [5]: binds
